According to article PMC5096685, “Characterization of CgHIFα-Like, a Novel bHLH-PAS Transcription Factor Family Member, and Its Role under Hypoxia Stress in the Pacific Oyster Crassostrea gigas”:
A negative result means that nothing was seen under these conditions. At least one verdict was read from the data and is not stated in words by the source. Tags and fusion partners may be left off the protein sequences shown.

Molecular target: T1, CgHIFα bHLH-PAS (Crassostrea gigas) (UniProt B6ZGN4)
T1 sequence (looked up, limits assumed): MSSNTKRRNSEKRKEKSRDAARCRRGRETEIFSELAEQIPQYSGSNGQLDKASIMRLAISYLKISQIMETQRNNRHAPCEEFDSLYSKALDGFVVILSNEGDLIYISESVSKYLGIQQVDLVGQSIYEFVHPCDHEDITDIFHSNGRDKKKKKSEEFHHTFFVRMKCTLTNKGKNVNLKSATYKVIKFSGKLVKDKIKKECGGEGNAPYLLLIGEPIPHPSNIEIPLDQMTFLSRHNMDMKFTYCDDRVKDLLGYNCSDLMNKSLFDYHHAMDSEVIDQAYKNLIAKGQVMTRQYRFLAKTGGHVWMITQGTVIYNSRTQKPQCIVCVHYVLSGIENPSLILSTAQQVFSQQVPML
Assay: competition with a labelled probe
Settings: 200-fold excess Em vs biotin-Ew; 10 mM Tris pH 7.5, 50 mM KCl, 1 mM DTT, 50 ng poly(dI-dC) in 20 uL, 20 min at room temperature; recombinant protein; protein details: His (pET30a); label: none (competitor)

GCCCTAAAAGCTGTCTCA (double strand) [Em (mutant HRE)]
binding result: no binding
